Data from PMC10036488.
These are yes or no findings as the source states them, for the method shown. In cells and extracts the contact can be indirect. A yes stands for co-enrichment or nearness to the bait. Other partners may have been found. Sequences can lack the tags named with a protein. Values belong to the binder of their own block, whether it stands above or below them.

Molecular target: T1, CASP1-sGFP-TurboID (pCASP1::CASP1-sGFP-TurboID) (Arabidopsis thaliana) (UniProt Q9SIH4)
T1 sequence: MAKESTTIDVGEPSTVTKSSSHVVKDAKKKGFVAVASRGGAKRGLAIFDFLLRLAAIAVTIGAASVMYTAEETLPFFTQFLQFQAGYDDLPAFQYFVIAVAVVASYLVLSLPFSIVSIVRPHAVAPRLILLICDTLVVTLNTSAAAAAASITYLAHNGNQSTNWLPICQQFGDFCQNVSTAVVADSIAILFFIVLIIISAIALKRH
Experiment: proximity labelling; TurboID fused to CASP1 (pCASP1::CASP1-sGFP-TurboID) in Arabidopsis roots; 50 µM biotin for 24 h at 28 °C; RIPA extract, streptavidin beads, LC-MS/MS, three biological replicates; compared with cyto-tID, PM-tID and CASP1-GFP controls

binding: binds
B1: CASP2 (protein, UniProt Q9CAX3 1-204)
chain: MKNESTFIDVPAESSSAMKGKAPLIGVARDHTTSGSGGYNRGLAIFDFLLRLAAIVAALAAAATMGTSDETLPFFTQFLQFEASYDDLPTFQFFVIAMALVGGYLVLSLPISVVTILRPLATAPRLLLLVLDTGVLALNTAAASSAAAISYLAHSGNQNTNWLPICQQFGDFCQKSSGAVVSAFVSVVFFTILVVISGVALKRH

binding: binds
B2: CASP3 (protein, UniProt Q9ZQI2 1-221)
chain: MDIEKAGSRREEEEPIVQRPKLDKGKGKAHVFAPPMNYNRIMDKHKQEKMSPAGWKRGVAIFDFVLRLIAAITAMAAAAKMATTEETLPFFTQFLQFQADYTDLPTMSSFVIVNSIVGGYLTLSLPFSIVCILRPLAVPPRLFLILCDTVMMGLTLMAASASAAIVYLAHNGNSSSNWLPVCQQFGDFCQGTSGAVVASFIAATLLMFLVILSAFALKRTT

binding: binds
B3: CASP4 (protein, UniProt Q9FFZ7 1-202)
chain: MKSDSIAVDVPAESSSVIKGKAPLLGLARDHTGSGGYKRGLSIFDFLLRLAAIVAALAAAATMGTSDETLPFFTQFLQFEASYDDLPTFQFFVVAIAIVAGYLVLSLPFSVVTIVRPLAVAPRLLLLVLDTAALALDTAAASAAAAIVYLAHNGNTNTNWLPICQQFGDFCQKTSGAVVSAFASVTFLAILVVISGVSLKRP
